# Primary screen of a compound library

The chains behind the UniProt entries cited, without tags or fusion partners. Residues count along the entry.
UniProt P9WNZ1, whole entry: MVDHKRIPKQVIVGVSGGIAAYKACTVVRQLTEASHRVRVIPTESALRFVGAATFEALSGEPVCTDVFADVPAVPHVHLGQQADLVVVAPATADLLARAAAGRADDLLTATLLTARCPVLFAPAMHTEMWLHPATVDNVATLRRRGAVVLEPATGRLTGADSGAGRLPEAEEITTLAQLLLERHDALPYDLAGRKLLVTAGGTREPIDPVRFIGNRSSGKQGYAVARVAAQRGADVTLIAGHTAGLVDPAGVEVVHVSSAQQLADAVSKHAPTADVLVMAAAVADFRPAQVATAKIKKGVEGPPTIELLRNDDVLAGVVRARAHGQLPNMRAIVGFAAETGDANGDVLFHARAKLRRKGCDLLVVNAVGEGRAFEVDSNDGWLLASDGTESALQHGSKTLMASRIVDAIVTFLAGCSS
UniProt I6X8D2, whole entry: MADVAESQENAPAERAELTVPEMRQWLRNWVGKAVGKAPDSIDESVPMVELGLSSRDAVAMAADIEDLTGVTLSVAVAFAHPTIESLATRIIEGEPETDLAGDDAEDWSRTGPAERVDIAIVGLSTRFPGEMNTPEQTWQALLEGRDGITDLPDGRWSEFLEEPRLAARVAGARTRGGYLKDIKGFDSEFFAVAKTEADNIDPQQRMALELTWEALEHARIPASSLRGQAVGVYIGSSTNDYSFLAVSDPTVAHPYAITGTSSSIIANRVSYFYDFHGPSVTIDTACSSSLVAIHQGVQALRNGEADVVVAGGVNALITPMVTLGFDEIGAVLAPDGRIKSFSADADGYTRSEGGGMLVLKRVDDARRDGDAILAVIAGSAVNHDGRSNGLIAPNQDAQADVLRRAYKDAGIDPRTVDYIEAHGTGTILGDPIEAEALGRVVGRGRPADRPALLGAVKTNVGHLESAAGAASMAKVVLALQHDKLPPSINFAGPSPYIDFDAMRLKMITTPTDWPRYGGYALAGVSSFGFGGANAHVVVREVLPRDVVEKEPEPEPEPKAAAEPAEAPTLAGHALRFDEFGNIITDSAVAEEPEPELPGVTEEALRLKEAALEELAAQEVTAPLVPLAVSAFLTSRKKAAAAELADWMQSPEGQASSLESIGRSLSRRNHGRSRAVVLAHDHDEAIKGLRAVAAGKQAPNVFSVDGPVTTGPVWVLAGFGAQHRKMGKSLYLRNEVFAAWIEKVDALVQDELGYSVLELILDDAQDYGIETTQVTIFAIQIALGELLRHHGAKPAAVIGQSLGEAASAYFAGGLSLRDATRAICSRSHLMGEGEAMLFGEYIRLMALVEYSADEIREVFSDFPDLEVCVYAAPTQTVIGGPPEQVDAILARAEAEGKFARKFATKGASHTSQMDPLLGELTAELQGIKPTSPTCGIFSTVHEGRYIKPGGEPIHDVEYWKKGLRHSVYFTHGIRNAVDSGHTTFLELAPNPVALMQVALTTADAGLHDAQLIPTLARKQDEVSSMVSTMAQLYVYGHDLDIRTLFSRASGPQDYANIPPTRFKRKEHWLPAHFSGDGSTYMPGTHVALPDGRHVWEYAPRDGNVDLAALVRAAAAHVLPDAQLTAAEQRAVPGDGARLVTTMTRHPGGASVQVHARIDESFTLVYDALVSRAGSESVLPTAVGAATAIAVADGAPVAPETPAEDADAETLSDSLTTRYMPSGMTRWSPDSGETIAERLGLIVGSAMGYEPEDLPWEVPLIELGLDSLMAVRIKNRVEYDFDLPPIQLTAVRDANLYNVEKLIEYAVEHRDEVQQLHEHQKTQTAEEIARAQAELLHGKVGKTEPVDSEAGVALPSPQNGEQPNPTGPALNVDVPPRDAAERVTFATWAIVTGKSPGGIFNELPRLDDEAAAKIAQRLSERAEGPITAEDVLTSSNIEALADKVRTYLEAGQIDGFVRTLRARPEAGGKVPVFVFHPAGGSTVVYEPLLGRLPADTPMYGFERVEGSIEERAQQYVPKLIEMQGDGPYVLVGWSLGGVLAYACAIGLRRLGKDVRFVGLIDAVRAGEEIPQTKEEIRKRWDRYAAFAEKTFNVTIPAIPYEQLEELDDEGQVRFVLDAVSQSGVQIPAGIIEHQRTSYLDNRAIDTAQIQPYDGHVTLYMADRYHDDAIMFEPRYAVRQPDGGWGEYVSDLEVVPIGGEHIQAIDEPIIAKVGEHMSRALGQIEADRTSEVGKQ
UniProt P9WPC5, whole entry: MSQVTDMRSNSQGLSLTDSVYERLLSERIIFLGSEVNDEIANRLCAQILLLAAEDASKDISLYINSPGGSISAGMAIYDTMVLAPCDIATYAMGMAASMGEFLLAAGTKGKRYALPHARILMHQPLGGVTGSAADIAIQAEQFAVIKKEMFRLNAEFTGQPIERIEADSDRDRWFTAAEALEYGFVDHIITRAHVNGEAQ
UniProt P9WPC3, whole entry partner: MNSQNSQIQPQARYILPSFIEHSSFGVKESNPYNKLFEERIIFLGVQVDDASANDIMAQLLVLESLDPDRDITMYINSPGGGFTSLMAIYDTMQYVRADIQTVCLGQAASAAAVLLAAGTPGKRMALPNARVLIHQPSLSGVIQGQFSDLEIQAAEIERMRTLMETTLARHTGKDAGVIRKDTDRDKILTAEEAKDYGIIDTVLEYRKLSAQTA
UniProt A4I591, 1-473: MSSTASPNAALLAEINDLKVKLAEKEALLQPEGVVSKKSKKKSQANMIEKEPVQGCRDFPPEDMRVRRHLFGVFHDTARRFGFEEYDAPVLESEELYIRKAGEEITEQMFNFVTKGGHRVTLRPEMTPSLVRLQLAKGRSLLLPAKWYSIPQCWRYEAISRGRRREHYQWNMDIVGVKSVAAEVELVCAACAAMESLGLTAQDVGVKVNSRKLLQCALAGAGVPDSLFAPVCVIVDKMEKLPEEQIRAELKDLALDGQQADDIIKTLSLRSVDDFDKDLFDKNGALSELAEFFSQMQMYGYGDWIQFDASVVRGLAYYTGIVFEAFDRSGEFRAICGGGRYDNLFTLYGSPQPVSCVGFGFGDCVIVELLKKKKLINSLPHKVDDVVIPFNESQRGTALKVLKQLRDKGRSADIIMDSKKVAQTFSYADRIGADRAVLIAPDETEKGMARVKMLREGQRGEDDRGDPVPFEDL
UniProt P9WFT3, whole entry: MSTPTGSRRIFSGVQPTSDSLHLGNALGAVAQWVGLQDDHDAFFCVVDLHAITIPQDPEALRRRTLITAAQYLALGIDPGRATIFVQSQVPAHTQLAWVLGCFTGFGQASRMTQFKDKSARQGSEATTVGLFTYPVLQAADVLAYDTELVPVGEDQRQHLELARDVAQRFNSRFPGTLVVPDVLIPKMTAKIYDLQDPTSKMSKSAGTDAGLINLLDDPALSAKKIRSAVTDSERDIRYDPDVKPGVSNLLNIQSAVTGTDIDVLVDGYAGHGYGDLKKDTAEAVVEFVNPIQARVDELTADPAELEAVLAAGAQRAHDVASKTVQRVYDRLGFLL

CoaBC: 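Enzyme assay of CoaBC with a phosphate dye (Biomol Green) read at 650 nm. Target: Coenzyme A biosynthesis protein CoaBC, Mycobacterium tuberculosis (UniProt P9WNZ1). Compounds at 30 µM. Direction is inferred from only a few compounds that gave an IC50; most scored high, so higher reads as stronger inhibition. Most strong results did not repeat in a second test. About 67,000 compounds were tested under these conditions; 0.06% (about 40) showed 50% or more at least once.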
Pks13 thioesterase: 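Enzyme assay of the thioesterase domain of polyketide synthase 13; the read-out is not stated. Target: Polyketide synthase Pks13, Mycobacterium tuberculosis (UniProt I6X8D2). Compounds at 30 µM. Higher reads as stronger inhibition (inferred from which compounds were picked for retests). Of about 67,000 compounds tested this way, about 300 (0.46%) reached 50% or more in at least one test.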
ClpP1P2: 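ClpP1P2, Mycobacterium tuberculosis (UniProt P9WPC5 and UniProt P9WPC3). Protease assay of ClpP1P2, read by the AMC dye that it sets free. Compounds at 50 µM. Higher reads as stronger inhibition, judged from the few compounds that gave an IC50. Most other retested compounds had strongly negative values. Size under these conditions: about 69,000 compounds, about 10 of them at 50% or above in at least one test.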
Toxoplasma: 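Assay of Toxoplasma gondii numbers, read through their beta-galactosidase reporter with a colour substrate. Concentration: 10 µM. The record gives no direction; the compounds picked for IC50 retests had high values, so higher reads as fewer parasites. About 67,000 compounds were tested under these conditions; 0.38% (about 260) showed 50% or more at least once.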
LiHisRS: 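Histidine-tRNA ligase, Leishmania infantum (UniProt A4I591). Enzyme assay of histidyl-tRNA synthetase; the read-out is not stated. Compounds at 30 µM. Higher reads as stronger inhibition (inferred: compounds with an IC50 in retests scored well above the rest). The assay is labelled LdHisRS but filed under L. infantum. Of about 69,000 compounds tested this way, about 410 (0.6%) reached 50% or more in at least one test.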
MtTrpRS: 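Tryptophan-tRNA ligase, Mycobacterium tuberculosis (UniProt P9WFT3). Enzyme assay of tryptophanyl-tRNA synthetase; the read-out is not stated. Concentration: 10 µM. Higher most likely means stronger inhibition; the record gives no direction and few retests gave an IC50. Size under these conditions: about 65,000 compounds, about 64 of them at 50% or above in at least one test.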

Each number is a percent effect as filed. How 0% and 100% were set is not recorded. Most values in the screen are low, and negative values occur. Compounds were drawn at random from those tested, without regard to their results. A dash means the value is not listed here; it may have been measured.

| compound | CoaBC | Pks13 thioesterase | ClpP1P2 | Toxoplasma | LiHisRS | MtTrpRS |
|---|---|---|---|---|---|---|
| `Cc1oncc1C(=O)NCc1cc(=O)n2c(n1)CN(C)CCC2` | 3.475 | -1.867 | 1.733 | - | 5.882 | 2.013 |
| `CS(=O)(=O)NCc1cc(=O)n2c(n1)CN(Cc1ccco1)CCC2` | -0.6148 | -1.888 | 3.669 | - | 22 | -6.404 |
| `COCCC(C)NC(=O)N1CCSC(C)(C)C1` (stereo not given) | 3.226 | - | -0.5929 | -7.443 | 8.772 | -3.269 |
| `Cc1cccc(Cn2cc(Br)c(NS(C)(=O)=O)n2)c1` | -4.85 | -19.96 | -2.525 | 46.94 | 15.52 | 1.943 |
| `O=C(Cc1ccccn1)N1CCc2ncnc(NC3CCC3)c2CC1` | 8.772 | 2.282 | 10.24 | - | 15.38 | -0.6916 |
| `CNC(=O)[C@@H]1C[C@@H](N)CN1C(=O)CCSCc1ccc(F)cc1` | -1.535 | -4.121 | -15.34 | -21.74 | 9.836 | -3.937 |
| `COC(=O)C1CCN(c2cc(C)nc(-c3ccncc3)n2)CC1` | -3.753 | 3.58 | -12.11 | 6.578 | 37.61 | 5.395 |
| `COc1c(C2CCCN2C(=O)c2ccnn2C)c(C)nn1C` (stereo not given) | 0.7335 | 0.05071 | -19.62 | -11.88 | 0 | -0.7048 |
| `Cc1nn(C)c(C)c1CN(C)C(C(=O)O)c1ccc(F)cc1F` (stereo not given) | 5.387 | -12.42 | 1.714 | -6.987 | 13.83 | 2.323 |
| `Cc1nc(C)c(C(=O)N2CCc3nnc(C4CCCN4C)n3CC2)s1` (stereo not given) | 2.283 | -3.886 | -17.37 | 5.589 | 9.396 | -4.525 |
| `CN(C)CCN1CCC2(CCN(C(=O)c3cccc(F)c3)CC2)C1=O.O=C(O)C(F)(F)F` | - | - | - | 7.025 | - | - |
| `CCCN1CCCn2c(nc(CNC(=O)N3CCCC3)cc2=O)C1.O=C(O)C(F)(F)F` | - | - | - | -18.82 | - | - |
| `CC(C(=O)N1CCOCC1)S(=O)(=O)Cc1noc(C(C)(C)C)n1` (stereo not given) | -1.613 | 31.89 | 0.614 | 5.945 | 3.947 | 8.318 |
| `CCN(C)c1ncnc2c1CCN(C(=O)c1ccc(C)o1)CC2` | 4.731 | -30.15 | -4.112 | 0.9042 | 12.33 | 2.008 |
| `COc1ccc(C(C)N(C)Cc2c(C(C)(C)C)[nH]c3ncccc23)cc1` (stereo not given) | -1.598 | -11.35 | -1.214 | -0.9197 | 10.74 | 5.154 |
| `CCOC(=O)[C@]12CCCN(Cc3ccco3)C[C@H]1CN(S(C)(=O)=O)C2` | 2.788 | 5.698 | -6.662 | - | 5.769 | - |
| `Cn1c(SCC(=O)NC(C)(C#N)C2CC2)nc2ccccc21` (stereo not given) | -6.638 | -117.5 | 4.813 | 0.1282 | 24.14 | -0.0748 |
| `Cc1nc(Cn2c3c(ccc2=O)CCN(CC2CCC2)CC3)cs1` | 1.667 | -40.07 | 1.463 | - | 16.24 | -3.173 |
| `Cc1nc(CO[C@@H]2CN(Cc3ccccn3)[C@@H]3COC[C@@H]32)cs1` | 2.589 | -13.48 | -14.38 | - | 12.9 | -0.7508 |
| `Cn1c(-c2cccs2)nn(CCNS(=O)(=O)c2ccccc2Cl)c1=O` | -1.48 | -20.63 | 0.4105 | -2.317 | 19.13 | -4.787 |
| `Cc1noc(CS(=O)(=O)CC(=O)NC(C)c2ccccc2)n1` (stereo not given) | 8.827 | -24.76 | -2.722 | -2.741 | -4.839 | -1.469 |
| `COc1cccc(CNCc2ccnc(N3CCOCC3)c2)c1OC` | 19.08 | 0.8744 | -40.16 | -9.631 | 7.143 | -1.163 |
| `O=S(=O)(Cc1c(F)cccc1Cl)NCCCN1CCCCCC1` | -32.86 | -30.45 | 1.515 | -2.136 | 21.21 | -2.22 |
| `CCN(CC)C(=O)[C@@H]1C[C@@H](N)CN1c1nc(N2CCCC2)nc(C)c1C` | 0.7246 | -15.25 | 5.125 | -2.324 | 1.01 | 6.909 |
| `CCc1cccc(C)c1NC(=O)C1CC(=O)N(Cc2ccccn2)C1` (stereo not given) | 12.42 | 58.84 | -11.6 | 2.581 | 5.66 | 6.76 |
| `COc1ccc([C@@H]2CN(C(=O)CCC(F)(F)F)C[C@H]2NC(C)=O)cc1` | 4.018 | -22 | -23.65 | -1.432 | 14.56 | -1.776 |
| `Cn1cc(-c2cnc(N3CCOCC3)nc2)cc1C(=O)NC1CC1` | 2.5 | -14.89 | -11.32 | -1.071 | 16 | 10.32 |
| `Cc1cc(C)n(-c2ccc(N3CCC(O)CC3)nc2)n1` | 4.016 | 37.52 | -0.7191 | -0.23 | 25.37 | 2.093 |
| `CNC(=O)[C@@H]1C[C@H]2CN(Cc3ccc(C)o3)C[C@H]2N1C(C)=O` | -4.187 | -3.371 | 3.572 | - | 4 | -6.296 |
| `O=C(CC1CCc2ccccc21)NC1(C(=O)O)CCCC1` (stereo not given) | 2.19 | 0.8799 | 6.151 | -24.18 | 2.222 | 2.687 |
| `Cc1cc(N(C)C)nc(N2CCCC2c2cccnc2)n1` (stereo not given) | -0.9828 | -10.83 | 1.358 | 9.119 | 18.25 | -0.8215 |
| `Cc1ccsc1[C@@H]1CCN(C(=O)CCC(=O)N2CCCCCC2)C[C@H]1O` | -3.797 | -6.04 | -9.581 | -8.956 | 22.12 | 0.5687 |
| `O=C(NC1CC(=O)N(C2Cc3ccccc3C2)C1)c1cc[n+]([O-])cc1` (stereo not given) | -8.779 | 5.108 | -5.064 | -7.079 | 0 | 3.48 |
| `Cc1cc(CCC(N)=O)cc(C2CCCN2Cc2cnc(C)nc2)n1` (stereo not given) | 4.833 | -7.927 | -15.67 | -14.96 | 6 | - |
| `CNC(=O)CCN1CCCC1c1ccccc1Br` (stereo not given) | -2.941 | -23.19 | -11.08 | 1.429 | -11.11 | -2.963 |
| `CO[C@@H]1CN(c2ccccc2)S(=O)(=O)[C@@]12CCN(C(=O)N(C)C)C2` | 2.179 | 19.22 | -4.089 | -16.65 | 6.122 | - |
| `Cc1cc(C)n(CC2CCCCN2CC(=O)Nc2nccs2)n1` (stereo not given) | -2.622 | -11.01 | -9.224 | -8.19 | 0 | -0.3127 |
| `Cn1ncc2c(N3CCCN4CCC[C@H]4C3)nc(C(C)(C)C)nc21` | 5.654 | -11.27 | -9.473 | - | 22.34 | 2.179 |
| `CC(C)N1CCCC(C(=O)N2CCc3c(nc(CC4CC4)[nH]c3=O)C2)C1` (stereo not given) | 17.36 | -10.27 | 9.324 | -0.2506 | 10.96 | 2.385 |
| `CN(CCn1ccnc1-c1ccccn1)S(C)(=O)=O` | -6.84 | 14.06 | 16.53 | 16.33 | -5.495 | -5.543 |
| `COc1ccc(S(=O)(=O)NC(=O)c2cscn2)cc1C` | -0.2475 | -6.305 | -13.12 | -10.88 | 10 | 0.7607 |
| `CCCOc1ncccc1CNc1nnc(C)c(C)c1C#N` | 7.846 | -11.16 | -34.61 | -31.11 | 12.84 | 27 |
| `Cc1cccc(CN2Cc3[nH]nc(COc4cccnc4)c3C2)n1` | -0.6342 | -44.65 | 7.346 | - | 19.3 | -2.467 |
| `Cc1cccc(CN2CCCC2(C(N)=O)c2cnccn2)n1` (stereo not given) | 0.9804 | -19.63 | 12.64 | 9.704 | 13.54 | - |
| `Cc1ccc(CN2CCCC3(COCCN(Cc4c[nH]nn4)C3)C2)s1.O=C(O)C(F)(F)F.O=C(O)C(F)(F)F` (stereo not given) | - | - | - | -2.873 | - | - |
| `O=S(=O)(NC1CCCCC12OCCO2)c1ccc2c(c1)OCCO2` (stereo not given) | -5.499 | 0.5604 | 2.485 | 7.128 | 10.75 | 2.417 |
| `O=C(c1csc(-c2cnccn2)n1)N1CCCC1Cn1cccn1` (stereo not given) | -4.47 | - | -27.89 | -4.119 | 11.61 | -1.101 |
| `O=C(N1CCC(OCc2ccccn2)CC1)C1(c2ccc(F)cc2)CC1` | 12.96 | -11.68 | -12.88 | 14.69 | 13.7 | -4.471 |
| `CC(NC(=O)NCC1(N2CCCCC2)CCCCC1)c1nncn1C` (stereo not given) | 10.18 | -8.557 | 4.639 | -0.1883 | 10.61 | 1.267 |
| `Cc1cccc(C(=O)N2C[C@@H]3OCCN(c4ncccn4)[C@@H]3C2)n1` | 0.1269 | -8.468 | 0.6802 | - | 7.547 | -4.092 |
| `COCCn1ccc2cc(C(=O)NC3CCOC(C)(C)C3)ccc21` (stereo not given) | -2.532 | -12.15 | -10.92 | 19.39 | 12.5 | -0.7148 |
| `CCNC(=O)NC1CCCN(c2ccc(C)cc2)C1=O` (stereo not given) | 11.9 | -4.611 | -1.559 | 7.233 | 9.859 | -1.802 |

The last 6 entries again:

* O=C(c1csc(-c2cnccn2)n1)N1CCCC1Cn1cccn1 (stereo not given) : CoaBC: -4.47%; ClpP1P2: -27.89%; Toxoplasma: -4.119%; LiHisRS: 11.61%; MtTrpRS: -1.101%
* O=C(N1CCC(OCc2ccccn2)CC1)C1(c2ccc(F)cc2)CC1 : CoaBC: 12.96%; Pks13 thioesterase: -11.68%; ClpP1P2: -12.88%; Toxoplasma: 14.69%; LiHisRS: 13.7%; MtTrpRS: -4.471%
* CC(NC(=O)NCC1(N2CCCCC2)CCCCC1)c1nncn1C (stereo not given) : CoaBC: 10.18%; Pks13 thioesterase: -8.557%; ClpP1P2: 4.639%; Toxoplasma: -0.1883%; LiHisRS: 10.61%; MtTrpRS: 1.267%
* Cc1cccc(C(=O)N2C[C@@H]3OCCN(c4ncccn4)[C@@H]3C2)n1 : CoaBC: 0.1269%; Pks13 thioesterase: -8.468%; ClpP1P2: 0.6802%; LiHisRS: 7.547%; MtTrpRS: -4.092%
* COCCn1ccc2cc(C(=O)NC3CCOC(C)(C)C3)ccc21 (stereo not given) : CoaBC: -2.532%; Pks13 thioesterase: -12.15%; ClpP1P2: -10.92%; Toxoplasma: 19.39%; LiHisRS: 12.5%; MtTrpRS: -0.7148%
* CCNC(=O)NC1CCCN(c2ccc(C)cc2)C1=O (stereo not given) : CoaBC: 11.9%; Pks13 thioesterase: -4.611%; ClpP1P2: -1.559%; Toxoplasma: 7.233%; LiHisRS: 9.859%; MtTrpRS: -1.802%

Source: ChEMBL document CHEMBL3988442, “University of Dundee, Small-Polar-MMV Screening Library” (2021).